Measured values published in paper PMC4236683.
Results are given in words; binding and its absence hold for the method and conditions named. For some assays here: Binding seen in cells or lysates may run through a third protein. Some results given as binding are weak or reduced against the parent protein; the word gives no strength. For some assays here: Tags and fused reporters may be left off the sequences shown.

The chains behind the UniProt entries cited, without tags or fusion partners. Where a name states a change or a piece, a line headed by the entry shows the natural chain unless it says otherwise. Residues count along the entry.
UniProt P70206: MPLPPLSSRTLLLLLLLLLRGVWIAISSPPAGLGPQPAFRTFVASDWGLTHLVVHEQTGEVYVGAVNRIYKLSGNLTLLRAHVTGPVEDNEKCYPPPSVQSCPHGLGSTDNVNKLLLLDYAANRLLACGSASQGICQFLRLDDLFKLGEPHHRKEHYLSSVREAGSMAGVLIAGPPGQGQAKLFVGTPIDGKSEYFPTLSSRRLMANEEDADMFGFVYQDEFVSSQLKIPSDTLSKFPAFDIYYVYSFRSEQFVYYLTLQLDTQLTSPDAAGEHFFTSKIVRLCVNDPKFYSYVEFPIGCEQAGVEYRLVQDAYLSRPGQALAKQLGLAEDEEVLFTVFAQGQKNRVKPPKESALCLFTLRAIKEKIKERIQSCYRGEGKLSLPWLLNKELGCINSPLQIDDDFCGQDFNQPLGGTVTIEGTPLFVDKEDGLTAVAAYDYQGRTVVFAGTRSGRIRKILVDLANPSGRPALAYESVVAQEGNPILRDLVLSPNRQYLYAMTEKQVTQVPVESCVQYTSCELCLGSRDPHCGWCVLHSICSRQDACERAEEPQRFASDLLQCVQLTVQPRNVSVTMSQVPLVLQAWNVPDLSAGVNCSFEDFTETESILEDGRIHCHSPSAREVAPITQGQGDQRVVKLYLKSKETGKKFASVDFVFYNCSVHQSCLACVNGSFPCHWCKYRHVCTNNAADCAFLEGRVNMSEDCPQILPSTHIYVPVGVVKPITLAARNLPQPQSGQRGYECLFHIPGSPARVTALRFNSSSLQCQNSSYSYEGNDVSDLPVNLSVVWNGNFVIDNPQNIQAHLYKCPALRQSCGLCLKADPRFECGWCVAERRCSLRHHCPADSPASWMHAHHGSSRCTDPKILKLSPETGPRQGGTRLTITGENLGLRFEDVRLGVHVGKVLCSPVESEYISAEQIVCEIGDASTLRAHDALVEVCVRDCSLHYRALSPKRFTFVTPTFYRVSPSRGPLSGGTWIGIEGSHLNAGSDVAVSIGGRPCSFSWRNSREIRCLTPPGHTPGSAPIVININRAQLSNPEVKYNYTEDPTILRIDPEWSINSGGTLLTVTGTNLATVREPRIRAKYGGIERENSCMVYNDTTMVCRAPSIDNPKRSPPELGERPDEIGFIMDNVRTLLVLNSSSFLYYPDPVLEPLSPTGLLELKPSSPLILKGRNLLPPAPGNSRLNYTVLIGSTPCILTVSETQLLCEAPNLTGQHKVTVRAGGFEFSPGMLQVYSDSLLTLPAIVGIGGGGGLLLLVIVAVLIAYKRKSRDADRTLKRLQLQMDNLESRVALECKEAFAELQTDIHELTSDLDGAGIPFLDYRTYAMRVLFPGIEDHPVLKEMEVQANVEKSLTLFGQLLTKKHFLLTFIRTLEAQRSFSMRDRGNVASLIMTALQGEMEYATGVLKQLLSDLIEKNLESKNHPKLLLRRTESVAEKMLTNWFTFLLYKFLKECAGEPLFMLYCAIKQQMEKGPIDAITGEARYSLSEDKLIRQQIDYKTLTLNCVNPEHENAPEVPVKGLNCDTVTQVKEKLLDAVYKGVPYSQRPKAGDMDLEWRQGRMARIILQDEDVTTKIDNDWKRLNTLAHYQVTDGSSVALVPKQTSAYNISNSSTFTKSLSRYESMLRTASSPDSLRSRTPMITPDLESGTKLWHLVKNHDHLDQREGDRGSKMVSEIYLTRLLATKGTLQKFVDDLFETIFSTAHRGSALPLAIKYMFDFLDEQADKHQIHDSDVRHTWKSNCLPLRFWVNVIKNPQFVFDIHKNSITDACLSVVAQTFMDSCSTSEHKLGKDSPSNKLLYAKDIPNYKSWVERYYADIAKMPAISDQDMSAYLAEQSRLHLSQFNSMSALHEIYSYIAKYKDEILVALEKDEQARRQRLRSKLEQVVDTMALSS
UniProt P70207, residues 35-1894: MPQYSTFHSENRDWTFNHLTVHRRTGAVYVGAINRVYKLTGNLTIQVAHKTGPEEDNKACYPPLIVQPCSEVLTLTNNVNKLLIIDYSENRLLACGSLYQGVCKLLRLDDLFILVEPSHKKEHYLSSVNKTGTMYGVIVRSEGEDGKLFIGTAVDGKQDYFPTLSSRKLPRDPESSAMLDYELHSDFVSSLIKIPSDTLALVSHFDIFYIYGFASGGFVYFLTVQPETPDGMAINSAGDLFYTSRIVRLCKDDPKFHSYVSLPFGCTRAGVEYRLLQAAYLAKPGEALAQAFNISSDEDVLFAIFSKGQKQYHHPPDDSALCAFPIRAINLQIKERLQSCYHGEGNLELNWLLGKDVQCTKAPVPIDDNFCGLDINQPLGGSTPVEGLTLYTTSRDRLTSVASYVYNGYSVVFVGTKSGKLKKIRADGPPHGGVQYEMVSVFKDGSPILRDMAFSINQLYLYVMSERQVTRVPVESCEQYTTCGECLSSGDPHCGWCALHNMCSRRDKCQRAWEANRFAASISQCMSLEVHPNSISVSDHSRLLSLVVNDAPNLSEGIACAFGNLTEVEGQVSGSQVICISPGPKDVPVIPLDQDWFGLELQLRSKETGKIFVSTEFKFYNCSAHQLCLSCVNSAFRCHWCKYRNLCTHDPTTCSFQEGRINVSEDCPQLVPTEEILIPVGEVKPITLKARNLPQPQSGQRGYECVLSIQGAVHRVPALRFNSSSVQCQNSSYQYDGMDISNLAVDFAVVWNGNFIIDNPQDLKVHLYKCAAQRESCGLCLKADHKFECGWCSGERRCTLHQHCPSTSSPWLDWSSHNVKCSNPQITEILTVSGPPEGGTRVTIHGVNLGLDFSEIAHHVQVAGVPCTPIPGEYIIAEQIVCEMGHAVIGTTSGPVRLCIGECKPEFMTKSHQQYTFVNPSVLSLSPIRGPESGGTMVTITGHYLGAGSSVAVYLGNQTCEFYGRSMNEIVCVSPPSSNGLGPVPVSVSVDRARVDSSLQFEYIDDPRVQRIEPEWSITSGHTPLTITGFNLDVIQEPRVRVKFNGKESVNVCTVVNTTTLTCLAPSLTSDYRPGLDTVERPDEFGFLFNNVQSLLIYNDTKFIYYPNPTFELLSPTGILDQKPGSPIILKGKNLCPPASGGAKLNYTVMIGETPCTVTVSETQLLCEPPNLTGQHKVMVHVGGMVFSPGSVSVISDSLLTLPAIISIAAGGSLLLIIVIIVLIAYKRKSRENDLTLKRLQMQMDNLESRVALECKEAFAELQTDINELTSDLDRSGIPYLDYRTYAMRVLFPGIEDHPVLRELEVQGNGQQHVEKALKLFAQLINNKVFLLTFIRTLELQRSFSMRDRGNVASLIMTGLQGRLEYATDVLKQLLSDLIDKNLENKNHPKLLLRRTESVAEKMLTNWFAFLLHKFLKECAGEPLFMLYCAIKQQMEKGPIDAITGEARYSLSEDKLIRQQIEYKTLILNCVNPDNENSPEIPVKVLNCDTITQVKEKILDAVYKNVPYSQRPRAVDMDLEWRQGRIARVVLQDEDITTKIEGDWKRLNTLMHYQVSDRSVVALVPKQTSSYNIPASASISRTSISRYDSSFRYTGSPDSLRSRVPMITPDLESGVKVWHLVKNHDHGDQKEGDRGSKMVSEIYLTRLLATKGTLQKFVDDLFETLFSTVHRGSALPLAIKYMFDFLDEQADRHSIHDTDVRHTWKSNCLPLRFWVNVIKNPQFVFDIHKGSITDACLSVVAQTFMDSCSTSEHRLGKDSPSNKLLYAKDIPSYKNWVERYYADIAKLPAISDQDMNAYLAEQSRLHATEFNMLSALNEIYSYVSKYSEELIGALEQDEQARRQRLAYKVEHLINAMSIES
UniProt P70208, residues 20-1872: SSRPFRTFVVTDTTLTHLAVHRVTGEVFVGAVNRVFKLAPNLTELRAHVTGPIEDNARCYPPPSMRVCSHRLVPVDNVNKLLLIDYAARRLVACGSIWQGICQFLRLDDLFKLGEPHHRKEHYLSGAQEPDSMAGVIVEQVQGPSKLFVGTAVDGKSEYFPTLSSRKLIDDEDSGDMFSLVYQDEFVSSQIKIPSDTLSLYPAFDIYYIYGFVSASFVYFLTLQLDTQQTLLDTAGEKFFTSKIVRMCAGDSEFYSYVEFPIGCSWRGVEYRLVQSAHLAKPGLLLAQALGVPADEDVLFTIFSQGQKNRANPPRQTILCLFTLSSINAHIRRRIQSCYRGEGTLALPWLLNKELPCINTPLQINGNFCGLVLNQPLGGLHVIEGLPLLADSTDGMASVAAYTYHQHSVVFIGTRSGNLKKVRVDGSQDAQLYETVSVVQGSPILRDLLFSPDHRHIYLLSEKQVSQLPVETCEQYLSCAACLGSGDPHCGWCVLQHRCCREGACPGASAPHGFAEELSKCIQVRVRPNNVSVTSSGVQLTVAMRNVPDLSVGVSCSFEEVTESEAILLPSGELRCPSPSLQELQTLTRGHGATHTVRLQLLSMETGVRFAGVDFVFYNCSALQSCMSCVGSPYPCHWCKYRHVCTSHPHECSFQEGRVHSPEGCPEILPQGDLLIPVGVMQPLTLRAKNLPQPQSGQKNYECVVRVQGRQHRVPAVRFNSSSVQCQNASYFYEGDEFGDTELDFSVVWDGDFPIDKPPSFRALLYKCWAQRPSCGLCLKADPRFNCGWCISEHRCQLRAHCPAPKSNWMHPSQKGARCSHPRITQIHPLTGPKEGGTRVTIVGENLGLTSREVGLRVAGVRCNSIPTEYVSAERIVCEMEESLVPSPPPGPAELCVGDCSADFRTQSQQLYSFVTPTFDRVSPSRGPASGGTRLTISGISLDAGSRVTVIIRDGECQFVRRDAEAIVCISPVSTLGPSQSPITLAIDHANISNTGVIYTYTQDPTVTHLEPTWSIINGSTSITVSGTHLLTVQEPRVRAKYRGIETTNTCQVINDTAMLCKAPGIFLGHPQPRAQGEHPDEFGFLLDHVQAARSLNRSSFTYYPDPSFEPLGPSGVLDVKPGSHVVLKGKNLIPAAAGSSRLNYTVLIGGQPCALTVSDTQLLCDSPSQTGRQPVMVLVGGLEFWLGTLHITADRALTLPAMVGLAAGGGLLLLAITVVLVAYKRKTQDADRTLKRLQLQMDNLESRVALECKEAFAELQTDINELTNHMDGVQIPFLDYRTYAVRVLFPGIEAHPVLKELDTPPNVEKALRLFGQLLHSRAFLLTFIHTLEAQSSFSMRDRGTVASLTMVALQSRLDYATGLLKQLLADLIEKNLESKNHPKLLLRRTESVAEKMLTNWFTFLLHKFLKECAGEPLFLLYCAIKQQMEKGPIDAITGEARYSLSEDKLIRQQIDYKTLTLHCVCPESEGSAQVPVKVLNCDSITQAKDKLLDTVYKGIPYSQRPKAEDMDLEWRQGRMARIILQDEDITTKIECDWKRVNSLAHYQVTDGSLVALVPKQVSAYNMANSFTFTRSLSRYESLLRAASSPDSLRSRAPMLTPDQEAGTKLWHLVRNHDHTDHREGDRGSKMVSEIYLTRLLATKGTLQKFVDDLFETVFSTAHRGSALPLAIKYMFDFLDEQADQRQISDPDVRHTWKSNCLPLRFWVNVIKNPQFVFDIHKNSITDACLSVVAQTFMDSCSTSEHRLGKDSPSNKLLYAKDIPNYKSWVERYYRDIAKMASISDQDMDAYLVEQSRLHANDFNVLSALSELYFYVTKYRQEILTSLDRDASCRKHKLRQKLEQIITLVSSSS

Tests used:
[1] = target: T1, 6xMyc-FL-Sema5A-GFP (rat) (UniProt D3ZTD8); experiment: co-IP; HEK293T cells co-transfected (low-density cultures); lysis in 20 mM TrisHCl pH 7.5, 150 mM NaCl, 1% CHAPS, 1% Triton X-100; IP with mouse anti-GFP, anti-myc immunoblot
T1 sequence: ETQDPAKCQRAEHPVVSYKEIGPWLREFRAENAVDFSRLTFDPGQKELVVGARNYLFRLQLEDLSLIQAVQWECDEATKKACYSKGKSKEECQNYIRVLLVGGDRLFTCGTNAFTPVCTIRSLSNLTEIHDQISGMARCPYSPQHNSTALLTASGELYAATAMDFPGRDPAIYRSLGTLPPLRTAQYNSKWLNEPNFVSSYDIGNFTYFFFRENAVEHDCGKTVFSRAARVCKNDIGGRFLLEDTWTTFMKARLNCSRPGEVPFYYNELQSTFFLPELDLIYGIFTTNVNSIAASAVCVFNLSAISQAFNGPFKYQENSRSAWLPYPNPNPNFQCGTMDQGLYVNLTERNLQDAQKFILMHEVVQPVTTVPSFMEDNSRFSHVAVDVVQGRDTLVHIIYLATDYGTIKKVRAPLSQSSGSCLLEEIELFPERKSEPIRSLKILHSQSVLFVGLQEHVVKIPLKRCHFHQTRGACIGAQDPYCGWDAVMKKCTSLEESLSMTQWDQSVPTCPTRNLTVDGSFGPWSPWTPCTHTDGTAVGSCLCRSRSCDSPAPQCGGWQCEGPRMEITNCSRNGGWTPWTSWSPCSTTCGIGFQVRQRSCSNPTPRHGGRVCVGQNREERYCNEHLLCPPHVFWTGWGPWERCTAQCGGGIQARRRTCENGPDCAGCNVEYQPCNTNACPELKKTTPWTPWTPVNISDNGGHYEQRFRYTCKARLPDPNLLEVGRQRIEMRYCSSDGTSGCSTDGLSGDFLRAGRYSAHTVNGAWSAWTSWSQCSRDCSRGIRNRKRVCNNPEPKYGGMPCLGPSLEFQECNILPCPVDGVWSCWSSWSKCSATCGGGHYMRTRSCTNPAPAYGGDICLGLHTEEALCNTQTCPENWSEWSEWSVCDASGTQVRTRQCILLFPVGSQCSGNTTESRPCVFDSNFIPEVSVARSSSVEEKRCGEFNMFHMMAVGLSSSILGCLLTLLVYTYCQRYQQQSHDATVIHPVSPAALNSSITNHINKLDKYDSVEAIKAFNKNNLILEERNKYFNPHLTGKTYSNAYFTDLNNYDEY

[2] = target: T2, 6xMyc-Sema5A^ΔTSR-GFP (rat) (UniProt D3ZTD8); experiment: as above
T2 sequence: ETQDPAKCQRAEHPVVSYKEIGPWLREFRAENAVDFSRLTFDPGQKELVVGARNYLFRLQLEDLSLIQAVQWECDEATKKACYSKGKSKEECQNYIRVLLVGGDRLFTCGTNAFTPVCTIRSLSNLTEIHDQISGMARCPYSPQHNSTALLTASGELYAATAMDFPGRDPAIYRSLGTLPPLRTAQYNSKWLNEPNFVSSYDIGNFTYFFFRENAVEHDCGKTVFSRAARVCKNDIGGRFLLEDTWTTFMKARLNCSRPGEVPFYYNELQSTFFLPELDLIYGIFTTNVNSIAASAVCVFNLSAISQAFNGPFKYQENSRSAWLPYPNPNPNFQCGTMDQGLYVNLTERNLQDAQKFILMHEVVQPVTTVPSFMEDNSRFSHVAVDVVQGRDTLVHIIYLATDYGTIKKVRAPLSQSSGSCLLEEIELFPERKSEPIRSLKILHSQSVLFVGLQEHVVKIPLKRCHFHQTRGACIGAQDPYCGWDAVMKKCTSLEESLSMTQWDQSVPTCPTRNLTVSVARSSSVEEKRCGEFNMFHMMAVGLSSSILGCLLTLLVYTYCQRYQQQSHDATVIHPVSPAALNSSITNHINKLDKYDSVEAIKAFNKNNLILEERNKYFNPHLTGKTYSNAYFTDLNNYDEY

[3] = target: T3, 6xMyc N-terminal-tagged full-length (FL)-Sema5A (rat) (UniProt D3ZTD8); experiment: binding of AP-clustered Fc fusion protein to transfected cells; COS7 cells transfected with PlexA or semaphorin constructs, incubated 75 min in OptiMEM with Fc fusion protein preclustered with anti-human IgG conjugated to alkaline phosphatase; rinsed, fixed, developed with NBT/BCIP; only the binder purified
T3 sequence: T1 sequence

FL-Sema6D = target: T4, FL-Sema6D (UniProt Q76KF0); experiment: as above
T4 sequence: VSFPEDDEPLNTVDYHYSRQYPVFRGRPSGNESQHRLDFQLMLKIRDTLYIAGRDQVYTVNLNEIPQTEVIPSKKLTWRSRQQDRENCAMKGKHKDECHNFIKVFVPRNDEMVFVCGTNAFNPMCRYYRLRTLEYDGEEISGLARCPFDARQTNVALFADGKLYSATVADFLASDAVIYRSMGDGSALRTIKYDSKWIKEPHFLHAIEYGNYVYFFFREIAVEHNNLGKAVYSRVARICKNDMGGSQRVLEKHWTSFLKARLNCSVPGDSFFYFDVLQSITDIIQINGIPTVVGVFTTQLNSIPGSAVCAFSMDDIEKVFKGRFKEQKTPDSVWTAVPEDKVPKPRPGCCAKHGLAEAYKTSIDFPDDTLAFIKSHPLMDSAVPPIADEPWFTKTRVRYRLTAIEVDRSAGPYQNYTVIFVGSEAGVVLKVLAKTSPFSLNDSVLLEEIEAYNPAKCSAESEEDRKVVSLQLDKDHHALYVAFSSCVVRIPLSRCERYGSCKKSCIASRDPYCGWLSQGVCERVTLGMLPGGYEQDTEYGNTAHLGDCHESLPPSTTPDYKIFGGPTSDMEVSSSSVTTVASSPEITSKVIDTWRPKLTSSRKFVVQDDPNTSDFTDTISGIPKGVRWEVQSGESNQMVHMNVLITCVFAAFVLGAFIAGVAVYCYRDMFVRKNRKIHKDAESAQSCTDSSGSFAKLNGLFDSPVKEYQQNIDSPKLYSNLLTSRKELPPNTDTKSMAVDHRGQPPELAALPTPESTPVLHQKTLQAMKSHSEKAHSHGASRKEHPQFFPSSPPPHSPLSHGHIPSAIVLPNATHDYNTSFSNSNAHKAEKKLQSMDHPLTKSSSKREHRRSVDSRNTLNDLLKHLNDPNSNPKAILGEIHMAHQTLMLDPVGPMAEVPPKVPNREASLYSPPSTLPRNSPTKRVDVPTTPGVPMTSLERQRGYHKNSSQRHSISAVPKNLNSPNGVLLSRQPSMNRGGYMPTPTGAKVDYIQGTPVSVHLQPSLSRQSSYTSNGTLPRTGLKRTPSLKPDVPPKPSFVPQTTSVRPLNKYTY

[4] = target: T5, membrane-bound Sema5A lacking the seven TSRs (6xMyc-Sema5A^ΔTSR) (rat) (UniProt D3ZTD8); experiment: as above
T5 sequence: T2 sequence

[5] = target: T6, Sema5A-Fc (Sema5A ectodomain fused to Fc) (rat) (UniProt D3ZTD8); experiment: pull-down; Sema5A-Fc or human IgG (50 nM) incubated with 6xMyc-tagged PlexA1 or PlexA2 ectodomain produced in HEK293T cells, pulled down with Protein G Plus/Protein A-agarose beads, anti-myc immunoblot; only the target purified
T6 sequence: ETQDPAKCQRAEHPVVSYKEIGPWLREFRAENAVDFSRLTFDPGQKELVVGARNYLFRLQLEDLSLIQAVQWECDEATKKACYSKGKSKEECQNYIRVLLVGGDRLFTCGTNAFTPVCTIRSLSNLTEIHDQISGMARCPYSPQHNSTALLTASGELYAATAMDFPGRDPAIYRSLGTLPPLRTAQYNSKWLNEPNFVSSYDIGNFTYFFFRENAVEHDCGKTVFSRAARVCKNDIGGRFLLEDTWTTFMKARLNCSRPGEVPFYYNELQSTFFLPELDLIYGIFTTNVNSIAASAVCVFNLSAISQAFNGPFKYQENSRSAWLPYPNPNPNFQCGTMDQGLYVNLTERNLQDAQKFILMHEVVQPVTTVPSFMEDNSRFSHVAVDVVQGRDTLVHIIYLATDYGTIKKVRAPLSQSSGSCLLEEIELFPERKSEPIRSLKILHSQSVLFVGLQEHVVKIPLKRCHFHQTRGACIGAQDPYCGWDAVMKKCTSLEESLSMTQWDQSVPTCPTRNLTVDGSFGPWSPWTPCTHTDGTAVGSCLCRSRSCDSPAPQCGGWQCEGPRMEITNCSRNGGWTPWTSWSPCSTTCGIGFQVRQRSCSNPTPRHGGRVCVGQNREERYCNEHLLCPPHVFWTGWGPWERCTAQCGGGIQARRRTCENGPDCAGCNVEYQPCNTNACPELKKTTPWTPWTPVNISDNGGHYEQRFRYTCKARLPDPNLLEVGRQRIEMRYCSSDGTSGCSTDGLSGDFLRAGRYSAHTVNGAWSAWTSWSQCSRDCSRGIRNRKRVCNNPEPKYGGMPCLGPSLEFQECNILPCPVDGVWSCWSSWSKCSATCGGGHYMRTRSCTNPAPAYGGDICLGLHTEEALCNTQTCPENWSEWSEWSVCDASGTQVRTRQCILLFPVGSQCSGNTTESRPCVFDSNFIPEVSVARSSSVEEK

Substance	binding [1]	binding [2]	other results
sema domain of PlexA1 fused to Fc (PlexA1^SD-Fc) (from UniProt P70206 28-580) (Fc fusion)			binding [3]: binds; binding (FL-Sema6D): binds; binding [4]: binds
full-length PlexA2 with an N-terminal 6xMyc tag (from UniProt P70207 35-1894) (receptor)	binds	binds	
6xMyc-tagged PlexA1 ectodomain (6x-myc-PlexA1^ect) (from UniProt P70206 28-1242) (domain or fragment)			binding [5]: binds

Now from value to substance, other results behind:

binding [1]	binding [2]	Substance	other results
binds	binds	full-length PlexA1 with an N-terminal 6xMyc tag (from UniProt P70206 28-1894) (receptor)	
	binds	PlexA1 lacking the cytoplasmic domain (PlexA1^Δcyt) (from UniProt P70206 28-1283) (receptor)	
no binding	no binding	full-length PlexA3 with an N-terminal 6xMyc tag (from UniProt P70208 20-1872) (receptor)	
